The campaign covered roughly 350,000 compounds. About 6,000 (1.7%) were called active. Inconclusive means that the source gave no clear call. Such entries were picked first, then a sample of the others. Cut-off read from the data, not from the text of the source: active = CPE inhibition above about 20% (passing the limit was not always enough); inconclusive = no clear call, values can overlap the other calls; tested in BHK-21 cells. A structure can be active in one record and inactive in another.
Assay: protection of cells from dengue 2 killing – plate reader, single concentration, primary screen (AID 651640);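 note: 0% = median of neutral control wells and 100% = median of positive control wells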
Details: DENV2-infected cells, cytopathic effect rescue, at 9.99 µM, stronger effect = higher value

SMILES	CPE inhibition
Cc1ccc(S(=O)(=O)N(C)C[C@@H]2OCCCC[C@H](C)Oc3ccc(NC(=O)Nc4ccc(C(F)(F)F)cc4)cc3C(=O)N([C@@H](C)CO)C[C@H]2C)cc1	active: 23.4%
CO[C@H](CN(C)Cc1ccc2c(c1)OCO2)[C@@H](C)CN(C(=O)c1ccccc1)[C@@H](C)CO	inactive: 5.74%
Cc1ccc(/C=C2\SC(=O)N(CCC(=O)N3CCN(C)CC3)C2=O)cc1	inconclusive: 25.2%
C[C@H]1CCCCO[C@H](CN(C)Cc2ccccc2)[C@@H](C)CN([C@@H](C)CO)C(=O)c2cc(NC(=O)CCCN(C)C)ccc2O1	inconclusive: 21.9%
COc1ccc(COC(=O)C2=C(C)NC(=O)NC2c2ccc(F)cc2)cc1 (stereo not drawn)	active: 60.8%
Cc1ccccc1S(=O)(=O)N1CC[C@@H]2[C@H](CO)Nc3ccc(-c4cccc(C#N)c4)cc3[C@@H]21	active: 95.7%
Cc1ccc(S(=O)(=O)N2CCN(C(=O)COC(=O)Cc3ccc(Cl)cc3)CC2)c(C)c1	active: 24.6%
CC1CCN(CC(=O)NC2CCCCC2)CC1	inconclusive: 30.8%
CN(C(=O)Nc1ccc(F)cc1)[C@H]1C[C@H]2c3[nH]c4ccccc4c3CCN2C(=O)[C@H]1CO	active: 43.9%
Cc1nc2c(OCCC3CCCCC3)cccn2c1N(C)C(=O)CCC1CCCC1	active: 41.4%
Cc1cc(C(=O)Nc2ccc(F)cc2C)cs1	inconclusive: 43.9%
COC(=O)[C@]1(CO)N=C(c2ccc(OCCCO)cc2)O[C@@H]1c1ccccc1CN=[N+]=[N-]	active: 50.8%
N#CC(C#N)=C/C=C(\Nc1ccc(Cl)cc1)c1ccc(Cl)cc1	inconclusive: 47.8%
CCc1nc2ccc(C(=O)NCc3ccc4c(c3)OCO4)cn2c1N(CCC(C)C)CCN(C)C	inconclusive: 26.5%
COc1ccccc1NC(=O)N1CCCCN2[C@H](C1)[C@@H](c1ccc(-c3cccc(F)c3)cc1)[C@@H]2CO	inactive: -33.9%
Cc1ccc(CN2CC[C@H]3C=CCc4cccc(c43)C2)cc1	inconclusive: 23.1%
CCC/C(O)=C1\C(=O)CC(c2ccccc2)CC1=NCCc1c(C)[nH]c2ccccc12 (stereo not drawn)	inactive: 19.8%
CN1CCCC1c1cccnc1 (stereo not drawn)	active: 117%
C[C@@H]1CN([C@H](C)CO)C(=O)c2cc(C#CC3CCCCC3)cnc2O[C@@H]1CN(C)Cc1cncnc1	inactive: -5.89%
CCNC(=O)C[C@H]1CC[C@H]2[C@H](COc3ccc(NC(=O)Cc4cccs4)cc3C(=O)N2C)O1	inactive: 6.63%
CCCCN1C(N)=NC[C@@H]1C(C)O (stereo partly drawn)	active: 23%
Cc1ccc(C2(C)NC(=O)N(CC(=O)Nc3ccc(N4CCOCC4)cc3N3CCOCC3)C2=O)cc1 (stereo not drawn)	inconclusive: 25.8%
COc1ccc(C#Cc2ccc3c(c2)[C@H]2[C@H](CCN2S(=O)(=O)c2ccccc2C)[C@H](CO)N3C)cc1	inactive: -1.78%
Cc1ccc(S(=O)(=O)SCCCSS(=O)(=O)c2ccc(C)cc2)cc1	inactive: 9.9%
Cc1noc(C)c1NC(=O)N(C)C[C@H]1Oc2ccc(NS(=O)(=O)c3c(C)noc3C)cc2C(=O)N([C@H](C)CO)C[C@@H]1C	active: 30.5%

SMILES	CPE inhibition
CCN(CC)CCCNC(=O)/C=C/C(=O)O	inconclusive: 49.2%
CNC(=O)C[C@@H]1CC[C@H]2[C@H](COc3ccc(NC(=O)c4cnccn4)cc3C(=O)N2C)O1	inactive: 1.67%
CN1[C@@H]2c3ccc(-c4ccc(F)cc4)c(=O)n3C[C@@H]2[C@@H](CO)[C@@H]1C(=O)NCCN1CCCCC1	inactive: 12.7%
O=C(NCc1ccccc1OC(F)(F)F)C1CCC(=O)N(Cc2ccccn2)C1 (stereo not drawn)	inconclusive: 27.6%
O=C(C[C@H]1C[C@@H]2c3cc(NS(=O)(=O)c4ccccc4)ccc3O[C@@H]2[C@@H](CO)O1)NC1CCCC1	inactive: -8.69%
CCN(CC)S(=O)(=O)c1ccc(NC(=S)NC(=O)C(C)C)cc1	inactive: -3.91%
Cc1cc(C)c(S(=O)(=O)NCc2cn3ccccc3n2)c(C)c1	inconclusive: 21.1%
CC1CCN(c2nc3c(c(=O)[nH]c(=O)n3C)n2CCSc2ncccn2)CC1	inconclusive: 28.5%
CNC(=S)N/N=C(\C)c1cccc([N+](=O)[O-])c1	inconclusive: 32.5%
CCOc1ccc(NC(=O)C2=NN(c3ccccc3)C(=O)CC2)cc1S(=O)(=O)N1CCCCC1	inconclusive: 34.7%
CCN1CCN(c2ncnc3sc4c(c23)CCC(C)C4)CC1 (stereo not drawn)	inconclusive: 22.7%
CCCC1=[N+](CC(=O)c2ccc(Br)cc2)CCn2cccc21	inconclusive: 25.7%
COC(=O)[C@]12CCCCC=C1N(Cc1ccc(Cl)cc1Cl)C(=O)[C@H](CC(=O)N1CCSCC1)C2	inconclusive: 84.3%
CCN1C(=NCCCCO)N[C@@H](c2cccc(C(F)(F)F)c2)C(C(=O)OC)=C1C	active: 32.6%
Cc1ccsc1/C=C1\SC(=S)N(CC2CCCO2)C1=O (stereo not drawn)	inactive: 5.46%
COc1cccc(OC)c1C(=O)Nc1ccc(Br)c(C(=O)c2ccccc2)c1	inconclusive: 25.9%
CC(=O)Oc1ccc2occ(C(=O)c3ccccc3)c2c1	inconclusive: 21%
CN1c2ccc(-c3ccccc3F)cc2[C@H]2[C@H](CCN2C(=O)Nc2ccc(F)cc2)[C@H]1CO	inconclusive: 47.5%
OCC[C@H]1C[C@@H](O)[C@H](O)[C@@]2(CCCO2)O1	active: 59%
CC(C)(C)OC(=O)N1CCCN(C(c2ccnc3ccccc23)c2nnnn2-c2ccc3c(c2)OCCO3)CC1 (stereo not drawn)	inconclusive: 20.2%
O=C(c1ccccc1F)N1C[C@@H]2O[C@H](CNS(=O)(=O)c3ccccc3)CC[C@@H]21	active: 61.1%
CC(C)C[C@@H](CN1CCC[C@@H]1CN1C(=S)NC[C@@H]1Cc1ccc(O)cc1)N1C[C@H](Cc2ccc(O)cc2)N(CC2CCCCCC2)C1=S	inactive: -5.51%
O=C(NC1CCCC1)[C@@H]1[C@@H](CO)[C@@H]2Cn3c(ccc(-c4ccccc4)c3=O)[C@H]1N2	inactive: -2.36%
CC(C)Cc1nnc(NC(=O)C2CC(=O)N(c3ccc4c(c3)OCCO4)C2)s1 (stereo not drawn)	inconclusive: 59.6%
C/C=C/c1ccc2c(c1)O[C@@H](CN(C)C(=O)NC1CCCCC1)[C@H](C)CN([C@@H](C)CO)S2(=O)=O	inactive: 4.25%

SMILES	CPE inhibition
COc1ccc(NC(=O)N2CC(=O)N3[C@H](C2)[C@@H](c2ccc(-c4ccc(C)cc4)cc2)[C@@H]3CO)cc1	inconclusive: 29.9%
COCC(=O)N1C[C@@H](C)[C@@H](OC)CN(C)C(=O)c2cc(NC(=O)Nc3cccc(F)c3)ccc2OC[C@H]1C	inconclusive: 34.4%
O=C(CSc1ccccc1)NCCc1ccccc1	inconclusive: 50.5%
CC(=NNC1=NCCN1)c1cnn(C2=NCCN2)c1C	inconclusive: 24%
Cc1noc(C)c1COC(=O)C1CCN(S(=O)(=O)c2c(Cl)cccc2Cl)CC1	inconclusive: 21%
CSc1cccc(N2CC(C(=O)Nc3cccc(S(=O)(=O)N4CCCC4)c3)CC2=O)c1 (stereo not drawn)	inconclusive: 48%
CN1C(=O)c2cc(NC(=O)C3CC3)ccc2OC[C@@H]2O[C@H](CC(=O)NC3CCC3)CC[C@@H]21	inconclusive: 21.9%
C[C@H]1CN([C@@H](C)CO)S(=O)(=O)c2ccc(-c3cncnc3)cc2O[C@@H]1CN(C)C(=O)CN(C)C	inconclusive: 23.3%
COc1ccccc1-c1ccccc1[C@@H]1[C@@H](C#N)N(C(=O)CN(C)C)[C@H]1CO	inconclusive: 30.9%
NC(=O)c1c(NC(=O)c2ccccc2Cl)sc2c1CCC2	inconclusive: 22.7%
CCN(CC)S(=O)(=O)c1ccc(N2CCCC2)c(NC(=O)Cc2ccccc2)c1	inconclusive: 22.2%
N#Cc1ccccc1S(=O)(=O)N1CCN(C(=O)C2CC(=O)N(c3ccc4c(c3)OCCO4)C2)CC1 (stereo not drawn)	inconclusive: 44.2%
Cc1ccc(S(=O)(=O)N(C)C[C@@H]2Oc3ccc(NS(=O)(=O)c4ccc(Cl)cc4)cc3CC(=O)N([C@@H](C)CO)C[C@H]2C)cc1	inactive: -4.26%
C[C@H]1CN([C@@H](C)CO)C(=O)c2cccc(NC(=O)Nc3ccc(C(F)(F)F)cc3)c2O[C@@H]1CN(C)Cc1ccc(C(F)(F)F)cc1	inconclusive: 22%
O=C(c1ccccc1F)N1C[C@H]2[C@@H](c3ccccc31)[C@@H](CO)N2C(=O)c1ccccc1	inactive: -2.53%
C[C@@H]1CCCCO[C@@H](CN(C)CC2CC2)[C@@H](C)CN([C@H](C)CO)C(=O)c2cc(NC(=O)Nc3ccc4c(c3)OCO4)ccc2O1	inactive: -2.03%
Nc1ccc(C(=O)OCC(=O)Nc2cc([N+](=O)[O-])ccc2F)cc1	inconclusive: 25%
COc1ccc(NC(=O)Nc2ccc3c(c2)C(=O)N([C@@H](C)CO)C[C@H](C)[C@H](CN(C)Cc2ccc(C(F)(F)F)cc2)O3)cc1	inactive: -5.75%
CCCCOc1ccc(C(=O)N/N=C/c2ccc(OCCN3CCCCC3)c(OC)c2)cc1	active: 32.2%
CN1C[C@@H]2[C@H](c3ccccc31)[C@@H](CO)N2C(=O)Nc1ccc(F)cc1	inconclusive: 70.6%
COc1cc(/C=C2\SC(=Nc3ccccc3OC)NC2=O)ccc1O	inconclusive: 25.8%
CO[C@H]1CN(C)C(=O)c2cc(NS(C)(=O)=O)ccc2OC[C@H](C)N(C(=O)c2ccc3c(c2)OCO3)C[C@@H]1C	active: 41.7%
COc1ccc(S(=O)(=O)N(C)C[C@H]2Oc3c(NS(=O)(=O)c4ccc(Cl)cc4)cccc3C(=O)N([C@H](C)CO)C[C@H]2C)cc1	inconclusive: 55.2%
